Data taken from ChEMBL document CHEMBL3988442, “University of Dundee, Small-Polar-MMV Screening Library” (2021).

Chains of the proteins cited; added tags and fusions are not shown.
UniProt E9BF75, entry or part of it: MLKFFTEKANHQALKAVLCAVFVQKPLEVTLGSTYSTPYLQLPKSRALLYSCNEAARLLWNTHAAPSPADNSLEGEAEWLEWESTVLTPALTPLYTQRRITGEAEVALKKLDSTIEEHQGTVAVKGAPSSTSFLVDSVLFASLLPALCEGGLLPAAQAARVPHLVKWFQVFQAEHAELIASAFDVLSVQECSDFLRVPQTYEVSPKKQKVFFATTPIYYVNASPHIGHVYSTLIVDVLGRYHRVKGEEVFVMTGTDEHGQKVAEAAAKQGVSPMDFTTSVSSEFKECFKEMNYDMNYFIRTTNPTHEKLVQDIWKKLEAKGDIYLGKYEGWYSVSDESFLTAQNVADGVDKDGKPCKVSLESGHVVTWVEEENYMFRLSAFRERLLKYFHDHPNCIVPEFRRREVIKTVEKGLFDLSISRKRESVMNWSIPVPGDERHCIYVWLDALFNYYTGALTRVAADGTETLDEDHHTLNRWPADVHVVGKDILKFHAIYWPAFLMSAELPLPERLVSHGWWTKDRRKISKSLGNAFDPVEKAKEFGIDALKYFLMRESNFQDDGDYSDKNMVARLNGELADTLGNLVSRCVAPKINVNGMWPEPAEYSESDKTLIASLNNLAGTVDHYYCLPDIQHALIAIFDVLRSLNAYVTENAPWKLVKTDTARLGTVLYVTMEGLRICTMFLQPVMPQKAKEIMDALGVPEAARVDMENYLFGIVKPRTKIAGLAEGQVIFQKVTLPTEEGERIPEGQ

LdMetRS: 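Primary screen of methionyl-tRNA synthetase; the read-out is not stated. Target: Methionyl-tRNA synthetase (putative), Leishmania donovani (UniProt E9BF75). The test concentration is not given. Values are per cent inhibition. Size under these conditions: about 68,000 compounds, about 24 of them at 50% or above in at least one test.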
Mtb heat-shock: 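Assay on Mycobacterium tuberculosis, filed only as a heat shock assay from Cornell; the read-out is not stated. The concentration is filed as 10 mM, unlikely as a test dose, so the dose is not known. Direction is inferred from retests: higher values go with stronger inhibition. Of about 69,000 compounds tested this way, about 930 (1.4%) reached 50% or more in at least one test.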

Results are percentages, as filed. The record does not define 0% and 100%; most values in the screen are far below 50% and negative numbers occur (in some assays of this library far below -100). The compounds are a random part of those screened. A dash means the value is not listed here; it may have been measured.

structure | LdMetRS | Mtb heat-shock
Cc1ccc(C(=O)N2CC(=O)N(Cc3cccs3)CC(O)C2)cc1 (stereo unspecified) | 9.589% | 58.25%
COCC(=O)N1CCc2ccccc2C12CCNCC2.Cl | - | 1.366%
CN(C)CC(=O)N1CCc2sc(C(=O)N3CCOCC3)cc21 | 8.211% | 54.7%
COc1cc(N2CCCC3(CCN(c4cccnc4)C3=O)C2)ncn1.O=C(O)C(F)(F)F (stereo unspecified) | - | -12.83%
CC(C)CN1CCC2(CCCNC2)C1=O.Cl (stereo unspecified) | - | -13.24%
CN1C(=O)CO[C@H]2CN(C(=O)Nc3ccc(F)cc3)C[C@H]21 | 6.767% | -
Cc1nc(O)c2nnn(C[C@H]3CCCN3C(=O)C3CCCC3)c2n1 | 11.98% | -0.2162%
Cc1occc1C(=O)N1CCC2(CCN(Cc3cccs3)C2)CC1 | 13.98% | -
Cc1ccccc1CN(Cc1ccccn1)C(=O)CNS(C)(=O)=O | 10.07% | -6.633%
CN1CCCC1c1ccnc(C(=O)N(C)C2CCCCC2)c1 (stereo unspecified) | 12.3% | -0.7317%
CS(=O)(=O)NC[C@]12COC[C@H]1CN(C(=O)N1CCCC1)C2 | 0.5168% | -
Cc1ccccc1CNC(=O)CNc1ccc(OC2CCOC2)cc1 (stereo unspecified) | 16.72% | 8.308%
CCN1CC(C(=O)NCc2ccccc2-n2cccn2)CC1=O (stereo unspecified) | 13.19% | 13.01%
Cc1ccc2c(n1)N(CCn1cccn1)CCN(C(=O)CC1CC1)C2.O=C(O)C(F)(F)F | - | -19.55%
CCOc1c(F)cccc1C(=O)N(C)CCc1ccccn1 | 8.009% | -8.591%
CCn1c(N)nc2cc(C(=O)NCCCc3ccccn3)cnc21 | 15.09% | -6.594%
[H][C@@]12C[C@H](C(=O)Nc3cccnc3)[C@@]([H])(CN(C(=O)NC3CCCC3)C1)O2 | - | -0.1164%
CC(CNC(=O)c1cccnc1)Oc1ccc(F)cc1 (stereo unspecified) | -0.2481% | 28.83%
CNC(=O)c1ccc(CNC(=O)c2cc(C(C)C)n(C)n2)cc1 | 11% | 3.729%
O=C(c1ccc(-c2cnco2)cc1)N1CCC(Nc2cccnn2)CC1 | 2.564% | -16.68%
COCC1CN(C(=O)Cc2cccs2)Cc2nnn(C)c21 (stereo unspecified) | 14.12% | 10.49%
O=C(O)C(F)(F)F.[H][C@@]12CCN(Cc3ccc(C)o3)C[C@@]1([H])O[C@@H](c1nnc(C)[nH]1)C2 | - | -43.05%
CN(CCN1CCOCC1)C(=O)CCc1cccc(Cl)c1 | 7.746% | -18.46%
CCC[C@H]1CN(c2nccc(OC)n2)C[C@@H]1NC(=O)C1CCOCC1 | 3.425% | -14.78%
CCNc1ccnc(NC2CCN(CC(N)=O)CC2)n1 | 5.245% | -22.62%
O=C(NCCCn1ccnc1)NCC(c1ccco1)N1CCCCC1 (stereo unspecified) | 14.92% | 7.668%
CCCc1nnc(NCCn2nc(C)c(Cl)c2C)o1 | 5.115% | 24.77%
CN1CCN(C2CCN(Cc3nc(-c4ccoc4)no3)CC2)C1=O | 16.81% | -20.1%
COc1ccc(-c2nnc(C(C)N3CCC4(CC3)OCCO4)o2)cc1 (stereo unspecified) | 7.609% | -8.019%
CCn1ncc2c1C(COC)CN(Cc1ccc(OC)cc1)C2 (stereo unspecified) | 8.55% | -3.936%
O=C(Cc1ccc(-n2cccn2)cc1)N1CCCC(n2cccn2)C1 (stereo unspecified) | 11.11% | -14.88%
CN(CCCNC(=O)C1CCCN(C(N)=O)C1)S(C)(=O)=O (stereo unspecified) | 13.43% | 3.035%
COc1cccc(CSc2nnc(C)n2CC(N)=O)c1 | 16.77% | 13.68%
O=C(O)Cn1ccc(=O)c2ccc(Cl)cc21 | 16.13% | -0.616%
COCCC1COC2(CCN(C(=O)C3CCCC3)CC2)C1 (stereo unspecified) | 16.06% | -13.07%
O=C(c1ncoc1C1CC1)N1CCCN(CCCc2ccccc2)CC1 | 27.42% | 28.81%
CC(C)N(C)C(=O)CN1CCCC(c2ccc(C(=O)O)cc2)C1 (stereo unspecified) | -2.963% | -13.72%
COCCC(=O)N1CC2(CCN(Cc3cccc(Cl)c3)CC2)C1.O=C(O)C(F)(F)F | - | 2.117%
Cc1cnn(CC2CCCN2C(=O)c2cn(-c3ccccc3)nc2C)c1 (stereo unspecified) | 13.73% | 6.525%
CCC(=O)N(CC)CCc1nccs1 | 2.258% | 1.33%
Cn1cc(N2CC3(CCN(S(=O)(=O)C4CC4)C3)CC2=O)cn1 (stereo unspecified) | 12.97% | 10.37%
O=C(NCC1CCOCC1)[C@@H]1CC[C@@H]2[C@@H](CCN2Cc2ccncc2)O1 | 19.29% | -
Cc1cnn(CCCNC(=O)NCCC(=O)Nc2ccccc2)c1 | 19.81% | -13.8%
CCOc1ccc(Cl)cc1CCNC(=O)Cn1ccccc1=O | 5.882% | 4.241%
c1cncc(COC2COC3(CCN(c4cnccn4)CC3)C2)c1 (stereo unspecified) | -7.958% | -
Cc1ccc2c(c1)OCCCC2NC1CCN(C)CC1 (stereo unspecified) | 9.42% | 11.02%
O=C1N(Cc2cccc(F)c2F)CCCC1(O)CNCC1CCCCC1 (stereo unspecified) | - | -23.91%
[H][C@]12CNC[C@@]1(C(=O)NCC1(COC)CC1)CN(C1CCCC1)C2 | - | -29.43%
CC1(C)CCC(C(=O)N2CCCO2)c2ccccc21 (stereo unspecified) | -0.8287% | -1.984%
COc1ncccc1CNC(=O)Nc1ccc(N(C)C)nc1 | 21.02% | 6.998%
CCCS(=O)(=O)NCCn1ccc(-c2cccs2)n1 | 0.6211% | -4.478%
Cc1nn(C(C)C)c(C)c1S(=O)(=O)Nc1ccc(C(=O)O)c(Cl)c1 | 16.67% | 9.198%
CC(C)N(C)Cc1cncc2c1CCN(CC(=O)N(C)C)C2 | 4.692% | -
CN(C)C(=O)c1ccc(-c2cccc3c2CCNC3)cc1 | 13.35% | -2.039%
CCCN1CCC(C(=O)NCCN(CC)c2ccccc2C)CC1 | 8.659% | -18.67%
Cc1cc(C)c(CNC(=O)N2CCNC(=O)C2)c(=O)[nH]1 | 9.699% | -3.436%
CN(CCS(C)(=O)=O)C1CCCN(Cc2noc(C3CC3)n2)C1 (stereo unspecified) | 3.944% | -0.331%
O=C(O)C(F)(F)F.[H][C@@]12CN(Cc3ccc(C)o3)CCC[C@]1(C(=O)O)CN(c1ncccn1)C2 | - | 0.5109%
COc1cccc(CN2CC3(CCNCC3)CCC2=O)c1OC | 6.959% | -32.45%
[H][C@@]12CN(Cc3ccc(C)c(F)c3F)C[C@]1(C(=O)O)CN(CC1CC1)C2=O | - | -25.12%
Cc1ccc2c(c1)C1(CCNCC1)CN2C(=O)CN(C)C | 22.56% | -
Cc1ccc(S(=O)(=O)NC(=O)CCc2ccco2)cc1N(C)C | 1.053% | 5.056%
FC(F)(F)c1[nH]nc2c1CN(Cc1ccccc1)CC2 | 21.27% | 7.829%
COC1CCCN(c2nc(C)nc3c2CCN(Cc2ccco2)CC3)C1 (stereo unspecified) | 12.9% | -29.27%
Cc1cc(C)c2nc(CN3CCOCC(O)C3)cc(O)c2c1 (stereo unspecified) | 15.93% | 2.902%
c1nc(N2CCN(Cc3nnnn3C3CC3)CC2)c2sccc2n1 | 13.77% | -14.83%
CN(CCN1CCCCC1=O)Cc1cc2cc3c(cc2[nH]c1=O)OCO3 | 13.07% | -33.63%
COCC(=O)N1CC(c2ccnc(Nc3cc(C(F)(F)F)ccn3)n2)C1 | 1.899% | -1.535%
CNC(=O)c1ccc(C2CN(CC(=O)N(C)C)CCO2)nc1 (stereo unspecified) | 15.43% | 10.07%
CN1CCN(S(=O)(=O)c2cccc(S(=O)(=O)C3CCS(=O)(=O)C3)c2)CC1 (stereo unspecified) | 14.92% | -12.99%
CCc1nc(C2CCCN(C(=O)c3ccc(OC)cc3)C2)no1 (stereo unspecified) | 9.392% | 1.611%
Cn1ncc2c(=O)[nH]c(CN3CCCc4cc(F)cc(F)c43)nc21 | 7.666% | 23.77%
COc1ccccc1N1CCN(c2nc(N)nc3[nH]cnc23)CC1 | 18.59% | -2.171%
CNc1nnc(SCc2nnc(C(C)(C)C)o2)s1 | 0% | -5.455%

Once more, the final 8:

CN(CCN1CCCCC1=O)Cc1cc2cc3c(cc2[nH]c1=O)OCO3 gave LdMetRS: 13.07%; Mtb heat-shock: -33.63%.
COCC(=O)N1CC(c2ccnc(Nc3cc(C(F)(F)F)ccn3)n2)C1 gave LdMetRS: 1.899%; Mtb heat-shock: -1.535%.
CNC(=O)c1ccc(C2CN(CC(=O)N(C)C)CCO2)nc1 (stereo unspecified) gave LdMetRS: 15.43%; Mtb heat-shock: 10.07%.
CN1CCN(S(=O)(=O)c2cccc(S(=O)(=O)C3CCS(=O)(=O)C3)c2)CC1 (stereo unspecified) gave LdMetRS: 14.92%; Mtb heat-shock: -12.99%.
CCc1nc(C2CCCN(C(=O)c3ccc(OC)cc3)C2)no1 (stereo unspecified) gave LdMetRS: 9.392%; Mtb heat-shock: 1.611%.
Cn1ncc2c(=O)[nH]c(CN3CCCc4cc(F)cc(F)c43)nc21 gave LdMetRS: 7.666%; Mtb heat-shock: 23.77%.
COc1ccccc1N1CCN(c2nc(N)nc3[nH]cnc23)CC1 gave LdMetRS: 18.59%; Mtb heat-shock: -2.171%.
CNc1nnc(SCc2nnc(C(C)(C)C)o2)s1 gave LdMetRS: 0%; Mtb heat-shock: -5.455%.